The target of this data set is integrin β1 (on KYSE410 ESCC cells) (UniProt P05556). The data set can be described thus: flow cytometry (cell binding). As to conditions: 0.01 M PBS, 4.5 g/L glucose, 5 mM MgCl2, 1 mg/mL BSA, 0.1 mg/mL yeast tRNA, 30 min on ice, ~1e5 cells, pH not stated, protein on the cell surface. In general terms: Flow cytometry measures light scatter and fluorescence of single cells or particles in a stream.

Where [1] appears, read: 250 nM, similar to A2(35), label: 5' FAM, single-stranded DNA.
[2] abbreviates: 250 nM, label: 5' FAM, single-stranded DNA.

The exact form of at least one protein or probe is not confirmed. At least one result comes from cells or an extract, where the contact may be indirect. Negatives hold for the conditions tested.

As to “ACGACGACGACGACGACGTTTCGCGAATGCTATCGGGGCTAAGTATCAAAATGAGC [A2(35)-DLS2]”, the binding result under setting [1] is on record as “binds”.
Regarding “AGAAGGAAGGAGAGCGACACCACCACGCGAATGCTATCGGGGCTAAGTATCAAAATGAGCTATCAGTGGTCGGTCGTCAT [A2(80)]”, under setting [2], the binding result is “binds”.
On to “CACCACGCGAATGCTATCGGGGCTAAGTATCAAAATGAGC [A2(40)]”, for which the binding result (250 nM, similar to A2(80), label: 5' FAM, single-stranded DNA) was “binds”.
On to CGAATGCTATCG [A2(12)], for which the binding result under setting [2] is “no binding”.
As for “CGTCGTCGTCGTCGTCGTTTTCGCGAATGCTATCGGGGCTAAGTATCAAAATGAGC / ACGACGACGACGACGACGTTTCGCGAATGCTATCGGGGCTAAGTATCAAAATGAGC [BAD (bivalent aptamer-DNA carrier)]”, the binding result (doxorubicin-loaded (BADD), similar to BAD, label: 5' …) is listed as “binds”.
“CGTCGTCGTCGTCGTCGTTTTCGCGAATGCTATCGGGGCTAAGTATCAAAATGAGC [A2(35)-DLS1]”: the binding result under setting [1] is “binds”.
With GCTAAGTATCAAAATGAGC [A2(19)], the binding result under setting [2] is reported as “no binding”.
